Results from the supplement of paper PMC6445147.
This is a noisy data set.

B1: human tRNA-Pro; a variant is named by its letters at N, in order (parent)
chain: GGCTCGTTGGTCTAGNGGTATGATTCTCGCTTAGGGTGCGAGAGGTCCCGGGTTCNNATCCCGGACGAGCCC

What was measured:
[1] = variants of: B1; experiment: tRNA Pol-III promoter activity, log2 (circRNA frequency / plasmid DNA frequency) (log2 ratio); higher = stronger promoter activity; conditions: HEK293T; construct: no Pol-II promoter ((-)CMV library)
[2] = variants of: B1; experiment: tRNA 3' processing efficiency (processed reads / all reads, maximum-likelihood estimate) (fraction); higher = more efficient 3' processing; conditions: HEK293T; construct: no Pol-II promoter ((-)CMV library)
[3] = variants of: B1; experiment: tRNA 5' processing efficiency (processed reads / all reads, maximum-likelihood estimate) (fraction); higher = more efficient 5' processing; conditions: HEK293T; construct: CMV Pol-II promoter ((+)CMV library, decapped)

Variant	tRNA Pol-III promoter activity (log2) [1]	tRNA 3' processing efficiency [2]	tRNA 5' processing efficiency [3]
GAA G9A C55T	0.348	0.44	–
CAA C55T A58T	3.65	0.07	–
CAA C55T A58G	1.87	0.5	–
GAA G9A A58C T59A	5.39	0.18	–
GAA G9A A20T T59C	3.7	0.25	–
AAA G9A C55A	1.8	0.2	–
GAA G9A G17T C55G	2.71	0.33	–
GAA C55T A58T	-0.243	0.29	–
GAA C55T A58C	-0.321	0.4	–
GAA C55T A58G	-0.713	0.43	–
AAA C55T A58G	3.3	0.17	–
AAA C55T A58T	2.41	0.57	–
AAA G9A G15A T19C	5.53	0.67	–
TAA G9A	-0.727	0.4	0.33
GAA G2A T53G	4.26	0.4	–
GAA G9A G17T	-0.852	0.25	–
AAA G9A A58G	4.12	0.62	–
GAA G9A G15A A58T	3.36	0.4	–
GAA C70T	3.23	0.62	–
GAA G9A A58G T59C	4.94	0.5	–
GAA G2A	3.04	0.57	–
GAA G9A G17T A58C	4.21	0.5	–
TAA A58T T59G	3.08	0.41	–

Variant	tRNA Pol-III promoter activity (log2) [1]	tRNA 3' processing efficiency [2]	tRNA 5' processing efficiency [3]
TAA A58T T59C	5.36	0.79	–
GAA G9A T54A	0.94	0.25	–
TAA C55G T59G	3.68	0.2	–
GAA G9A A14C T19A	3.62	0.25	–
GAA G9A T19G T59C	6.25	0.4	–
GAA G9A A14G G18C	3.86	0.75	–
TAA G9A A41G	6.54	0.76	–
CAA A58T T59G	5.39	0.73	–
GAA G9A A20C A58T	2.34	0.29	–
GAA G9A G15C	-0.772	0.25	–
GAA G9A G35A A58T	5.26	0.4	–
GAA C49A	5.93	0.25	–
GAA G9A G17C C55G	3.23	0.25	–
GAA G9A A14T T53A	3.61	0.25	–
GAA G9A A20T	1.36	0.5	–
CAA C55A T59A	3.52	0.53	–
GAA G9A A14T G38A	4.68	0.2	–
GAA G9A A14C	1.11	0.29	–
GAA G9A A14G	-0.865	0.25	–
GAA G9A A14C T59A	7.93	0.06	–
CAA G9A C55T	4.51	0.33	–
GAA G9A A14T T59C	3.74	0.14	–
GAA G9A G15C G17T	13.4	0.93	–

Variant	tRNA Pol-III promoter activity (log2) [1]	tRNA 3' processing efficiency [2]	tRNA 5' processing efficiency [3]
CAA G9A G15A	4.44	0.3	–
GAA C55A	-2.05	0.63	0.27
GAA C55T	-0.847	0.44	0.25
GAA C55G	-1.25	0.5	0.15
AAA C55T T59G	2.94	0.25	–
GAA C55G A58G	-0.0288	0.29	–
GAA C55G A58T	-0.175	0.17	0.25
GAA G9A A14C A58T	7.03	0.62	–
GAA G9A T46A	4.36	0.25	–
GAA C55T T59G	0.394	0.3	–
GAA C55T T59C	0.897	0.17	–
GAA G9A A14T A58G	3.44	0.6	–
GAA G9A T53A A58G T59C	4.53	0.33	–
GAA G9A T53A A58G T59A	5.75	0.57	–
GAA G9A T53C	1.43	0.08	–
GAA G9A T53A	1.53	0.22	–
GAA G9A T53G	0.831	0.67	–
TAA C55T A58T T59A	5.26	0.2	–
GAA G9A A58C	-0.433	0.25	–
GAA G9A A58G	-0.0102	0.33	0.33
GAA G9A A58T	0.587	0.52	–
GAA G9A A20T T53G	1.85	0.25	–
CAA G9A A58G T59G	6.25	0.4	–

Variant	tRNA Pol-III promoter activity (log2) [1]	tRNA 3' processing efficiency [2]	tRNA 5' processing efficiency [3]
GAA G9A G15A T59G	3.34	0.25	–
TAA G9A C55T	2.83	0.17	–
TAA G9A G17T	2.94	0.5	–
GAA G9A G17T A58G T59G	6.26	0.2	–
TAA C55G	-0.628	0.25	–
TAA C55A	0.511	0.4	–
TAA C55T	-0.151	0.36	–
GAA G9A	0.199	0.94	0.31
GAA G9A A14G A58C	4.36	0.16	–
GAA G9A T19A	1.03	0.77	–
TAA G9A A20C T53G	5.73	0.85	–
GAA G9A T19C T53C	5.62	0.5	–
TAA C55T T59G	7.43	0.05	–
TAA C55T T59C	6.53	0.33	–
TAA C55T T59A	2.13	0.25	–
TAA G9A T54A	3.18	0.2	–
AAA G9A G17T T19A T59G	3.53	0.33	–
GAA G9A A14G T53A	4.61	0.62	–
AAA C55T	-0.555	0.44	–
AAA C55A	-0.966	0.25	–
AAA C55G	0.163	0.31	0.17
CAA C55G A58C	3.21	0.5	–
GAA G9A T19A A20C A58T	6.03	0.25	–

Variant	tRNA Pol-III promoter activity (log2) [1]	tRNA 3' processing efficiency [2]	tRNA 5' processing efficiency [3]
GAA C55A T59G	-1.12	0.5	–
CAA G9A	1.12	0.57	–
GAA G9A T19C A58C T59C	7.08	0.18	–
GAA G9A A14G A20T	2.5	0.29	–
AAA A58T T59G	5.19	0.25	–
TAA G9A A20G A58T	4.93	0.25	–
GAA G9A G15A A20G A58G	5.75	0.43	–
GAA G9A G17T T19A C55T	7.36	0.2	–
AAA C55G A58T	5.62	0.89	–
GAA G9A G15T A58C	3.84	0.14	–
GAA A58T T59C	2.73	0.4	–
GAA A58T T59G	1.38	0.32	0.5
GAA G9A T59C	0.889	0.22	–
GAA G9A T59A	1.72	0.25	–
GAA G9A T19A C55G	3.16	0.14	–
CAA C55G	1.64	0.27	–
CAA C55T	0.796	0.35	–
GAA G9A A20G T59A	2.25	0.2	–
GAA G9A A58T T59A	5.6	0.58	–
GAA G9A A58T T59G	6.62	0.15	–
GAA G9A A58T T59C	4.52	0.57	–

For reference, some entries already given:
Variant	tRNA Pol-III promoter activity (log2) [1]	tRNA 3' processing efficiency [2]	tRNA 5' processing efficiency [3]
GAA G9A G15T A58C	3.84	0.14	–
GAA A58T T59C	2.73	0.4	–
GAA A58T T59G	1.38	0.32	0.5
GAA G9A T59C	0.889	0.22	–
GAA G9A T59A	1.72	0.25	–
GAA G9A T19A C55G	3.16	0.14	–
CAA C55G	1.64	0.27	–
